This series is described as follows: general procedure: Boc solid-phase peptide synthesis; para-methylbenzhydrylamine resin; preformed HOBt active esters. The conditions noted are these: whole synthesis, scale 0.5 mequiv.

Some peptides are written in HELM: one residue between dots, names in brackets for other building blocks, links after the first $.

The source of these data is patent US5017689A (Arizona Technology Development Corporation, priority 1989, dated 1991).

Regarding “PEPTIDE1{Y.G.G.F.L.R.R.I.R.P.K.[am]}$$$$V2.0”, the crude mass is 0.40 g.
